Measured values reported in PubChem BioAssay AID624297 (National Center for Advancing Translational Sciences (NCATS), 2012).
About 6,200 (1.8%) of roughly 340,000 compounds were called active. The shares of active, inactive and inconclusive entries below differ from those in the screen. The call rests on the fitted dose curve; in most records, active means well fitted activation curve with a large enough effect; inconclusive means small, poorly fitted or top-dose-only effect; inactive means no such curve, though single readings can be large or run the other way. A potency beside an inconclusive call is a rough fit, not a confirmed value.

Test: A quantitative high throughput screen for small molecules that induce DNA re-replication in SW480 colon adenocarcinoma cells. Further: nearly all actives have a fitted effect of over 55% in size. On re-replication activation: % of control where 0% means no effect.
Settings: Hoechst DNA content imaging, 48 h; re-replication activation: at 46.1 µM (top of the series) unless noted
Summary of the method: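 250 cells/well; 23 nL cpd via pin tool; 48 hr, 37 C, 5% CO2; Hoechst 40 min; imager read of total nuclear intensity, ex 405/em 500-530 nm.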
Potency means the concentration at half of the fitted maximal effect.

**Q.** With `CSc1ccc(Cl)c(C(=O)Nc2ccc(Cl)cn2)c1` as the compound, how does the Potency read?
**A.** active: 20.6 µM

**Q.** Which Potency does the source give for `COc1cc(F)c(C2=CC(=O)C[C@H](c3ccc4c(c3)OCO4)C2)cc1F` here?
**A.** inactive

**Q.** For `CCN(CC)CCNC(=S)Nc1ccc2nc(N3CCCC3)cc(C)c2c1`, which Potency is on record?
**A.** inconclusive: 23.1 µM [activator, single point]

**Q.** With `COc1ccc(N(C)S(=O)(=O)c2cccc(C(=O)OC(C)C(=O)NC3CCCCC3C)c2)cc1` (configuration not stated) as the compound, how does the Potency read?
**A.** inconclusive: 29.1 µM [activator, partial curve, poor fit]

**Q.** For `COc1ccc(NC(=O)N(C2CCCCC2)C(C)c2ccco2)c(OC)c1` (configuration not stated), which Potency is on record?
**A.** inactive

**Q.** For `O=C(Nc1ccc(Cl)c(S(=O)(=O)N2CCOCC2)c1)C1CCC1`, which Potency is on record?
**A.** inconclusive: 29.1 µM [activator, single point]

**Q.** For `CCc1nnc(NC(=O)CSc2nc(C)c3c(c2C#N)CCCC3)s1`, which Potency is on record?
**A.** inconclusive: 31.6 µM [activator, single point]

**Q.** For `CCCCC(=O)NC(c1cccc([N+](=O)[O-])c1)c1ccc2cccnc2c1O` (configuration not stated), which Potency is on record?
**A.** inconclusive: 4.61 µM [activator, single point]

**Q.** With `CCCc1nn(C)c(C(N)=O)c1[N+](=O)[O-]` as the compound, how does the Potency read?
**A.** inconclusive: 32.6 µM [activator, single point]

**Q.** For `CC1(C)CC(NC(=O)CCc2ccccc2)CC(C)(C)N1`, which Potency is on record?
**A.** inconclusive: 0.0651 µM [activator, full curve, poor fit]

**Q.** With `O=S(=O)(CCSc1nc2ccccc2s1)c1nc2ccccc2s1` as the compound, how does the Potency read?
**A.** inconclusive: 6.51 µM [activator, full curve]

**Q.** For `Nc1nc(Nc2cccc(F)c2)nc(N2CCOCC2)c1[N+](=O)[O-]`, which Potency is on record?
**A.** inconclusive: 7.31 µM [activator, partial curve, poor fit]

**Q.** Which Potency does the source give for `N#Cc1c(N)[nH]c(=S)c(C#N)c1-c1ccccc1` here?
**A.** inconclusive: 18.4 µM [activator, single point]

**Q.** With `COc1ccc(Cl)cc1NC(=O)Nc1cn(C)nc1C` as the compound, how does the Potency read?
**A.** inconclusive: 4.61 µM [activator, full curve, poor fit]

**Q.** Which Potency does the source give for `O=C(N/N=C/c1ccc(O)cc1O)c1ccncc1` here?
**A.** inconclusive: 18.4 µM [activator, single point]

**Q.** For `CC(C)(CNC(=O)C1c2ccccc2-c2ccccc21)N1CCOCC1`, which Potency is on record?
**A.** inactive

**Q.** For `Cc1noc(/C=C/N(C)C)c1S(=O)(=O)N1CCCC(C(=O)Nc2ccccc2F)C1` (configuration not stated), which Potency is on record?
**A.** inconclusive: 0.82 µM [activator, partial curve, poor fit]

**Q.** For `CC(CN1CCOCC1)OC(=O)c1ccc(Br)cc1` (configuration not stated), which Potency is on record?
**A.** inconclusive: 23.1 µM [activator, single point]

**Q.** For `Cc1ccc([N+](=O)[O-])cc1N=C(c1cccc([N+](=O)[O-])c1)N1CCOCC1`, which Potency is on record?
**A.** inconclusive: 1.03 µM [activator, partial curve, poor fit]

**Q.** For `COc1ccc(OC)c(S(=O)(=O)N(C)CC(=O)N2CCOCC2)c1`, which Potency is on record?
**A.** inconclusive: 6.51 µM [activator, partial curve, poor fit]

**Q.** With `CCN(CC)c1cc(C(F)(F)F)nc(-c2ccccn2)n1` as the compound, how does the Potency read?
**A.** inconclusive: 29.1 µM [activator, single point]

**Q.** Which Potency does the source give for `COc1cc(/C=N/Nc2ncnc3sc4c(c23)CCC4)ccc1O` here?
**A.** active: 23.1 µM

**Q.** With `Cc1ccc(CNC(=O)C2c3ccccc3C(=O)N3CCc4ccccc4C23)o1` (configuration not stated) as the compound, how does the Potency read?
**A.** inconclusive: 29.1 µM [activator, single point]

**Q.** Which Potency does the source give for `Cc1ccccc1N(C(=O)Cn1nnc(-c2ccc(F)cc2)n1)C(C(=O)NC(C)(C)C)c1ccncc1` (configuration not stated) here?
**A.** inconclusive: 25.9 µM [activator, single point]

**Q.** Which Potency does the source give for `Cc1ccc2nc(NC(=O)CN(C)S(=O)(=O)c3ccc(Br)s3)sc2c1` here?
**A.** inconclusive: 16.4 µM [activator, single point]

**Q.** Which Potency does the source give for `Cc1ccccc1Nc1cc2ccccc2c(=O)[nH]1` here?
**A.** inconclusive: 29.1 µM [activator, single point]

**Q.** With `Cc1cc(Nc2cc(N3CCN(C)CC3)nc(Sc3ccc(NC(=O)C4CC4)cc3)n2)n[nH]1` as the compound, how does the Potency read?
**A.** active: 0.259 µM

**Q.** With `CCn1c(=O)c2c3c(sc2n2c(SCc4ccc(F)cc4)nnc12)CCCC3` as the compound, how does the Potency read?
**A.** inconclusive: 0.164 µM [activator, full curve, poor fit]

**Q.** Which Potency does the source give for `COc1ccc(C(=O)Cn2ccsc2=NC(C)=O)cc1` here?
**A.** inactive

**Q.** For `CC[C@@]1(C(=O)OC)N[C@H](CN(C)C(=O)Nc2ccc(C)cc2)[C@@H]2C(=O)N(Cc3ccccc3)C(=O)[C@@H]21`, which re-replication activation is on record?
**A.** inactive: 7.07% [at 9.22 µM]

**Q.** Which Potency does the source give for `Clc1ccc2nsnc2c1NC1=NCCN1` here?
**A.** inconclusive: 0.259 µM [activator, single point]

**Q.** For `CNCCOc1ccc(Cl)c(Cl)c1`, which Potency is on record?
**A.** inconclusive: 13 µM [activator, partial curve, poor fit]

**Q.** For `Cc1cccc(-n2nc(C)cc2N)c1`, which Potency is on record?
**A.** inconclusive: 29.1 µM [activator, single point]

**Q.** With `Cc1c(C)c2c(OCC(=O)N3CCC(C(=O)O)CC3)cc3c(c2oc1=O)CCC(C)(C)O3` as the compound, how does the Potency read?
**A.** inactive

**Q.** With `Cc1ccc(OCC(=O)c2c[nH]c3ccccc23)c([N+](=O)[O-])n1` as the compound, how does the Potency read?
**A.** inactive

**Q.** For `Cc1nc(C)c2c(=O)cc(-c3ccccc3)[nH]c2n1`, which Potency is on record?
**A.** active: 8.91 µM

**Q.** Which Potency does the source give for `Cc1ccc(OCC(=O)Nc2ccc3c(c2)C(=O)N(CCC(=O)O)C3=O)cc1` here?
**A.** inactive

**Q.** For `N#C/C(=N\Nc1ccc([N+](=O)[O-])cc1)C(N)=S`, which Potency is on record?
**A.** inactive

**Q.** With `O=C1c2ccccc2C(=O)N1CCC(c1ccccc1)c1ccco1` (configuration not stated) as the compound, how does the Potency read?
**A.** inconclusive: 32.6 µM [activator, partial curve, poor fit]

**Q.** For `Cc1ccc(-c2cc(=O)c3ccc(Cl)cc3[nH]2)cc1`, which Potency is on record?
**A.** inactive

**Q.** With `COc1ccc(Cl)cc1N1C(=O)CC(N2CCN(S(=O)(=O)c3ccccc3F)CC2)C1=O` (configuration not stated) as the compound, how does the Potency read?
**A.** inconclusive: 0.116 µM [activator, full curve, poor fit]

**Q.** With `CC(NC(=O)CN1C(=O)NC2(CCCCC2)C1=O)c1ccc(S(N)(=O)=O)cc1` (configuration not stated) as the compound, how does the Potency read?
**A.** active: 6.51 µM

**Q.** Which Potency does the source give for `CC1CCC2(CC1)NC(=O)N(CC(=O)Nc1cccc(S(=O)(=O)N3CCCCC3)c1)C2=O` (configuration not stated) here?
**A.** inconclusive: 29.1 µM [activator, partial curve, poor fit]

**Q.** For `COc1ccccc1C/C(N)=N/OC(=O)COc1ccc2ccccc2c1`, which Potency is on record?
**A.** inconclusive: 32.6 µM [activator, single point]

**Q.** For `N#Cc1ccc(-c2ccc(F)cc2)nc1SCC(=O)Nc1sc2c(c1C#N)CCC2`, which Potency is on record?
**A.** inconclusive: 3.66 µM [activator, partial curve, poor fit]

**Q.** For `O=C(Nc1ccc(Cl)cc1)/C(=C/c1cccc(O)c1)c1nc2ccccc2s1`, which Potency is on record?
**A.** active: 20.6 µM

**Q.** For `CC(=O)Oc1ccc(N2C(=O)c3cccc4c([N+](=O)[O-])ccc(c34)C2=O)cc1`, which Potency is on record?
**A.** inconclusive: 9.2 µM [activator, partial curve, poor fit]

**Q.** Which Potency does the source give for `COc1ccc(Nc2nc(C)nc3c2nnn3Cc2ccccc2)cc1OC` here?
**A.** inactive

**Q.** For `Cc1cc(NCCCN2CCOCC2)n2ncc(-c3ccc(Cl)cc3)c2n1`, which Potency is on record?
**A.** inconclusive: 29.1 µM [activator, single point]

**Q.** With `COCCCNC(=O)c1cc(C)nn1-c1ccccc1` as the compound, how does the Potency read?
**A.** inactive

**Q.** Which Potency does the source give for `COC(=O)c1cc(C(=O)OC)cc(-n2c(C)cc(C(=O)COC(=O)CNS(=O)(=O)c3ccc(C)cc3)c2C)c1` here?
**A.** inactive

**Q.** With `CCC(=O)NNC(=O)CSc1nnc(-c2ccccc2)c(-c2ccccc2)n1` as the compound, how does the Potency read?
**A.** inactive

**Q.** For `Cc1ccc(C2c3[nH]c4ccccc4c3C[C@H]3C(=O)N(c4ccccc4C(=O)N4CCC[C@@H]4C(=O)O)C(=O)N23)cc1` (some centres not stated), which Potency is on record?
**A.** inconclusive: 0.92 µM [activator, full curve, poor fit]

**Q.** With `CC1CCCC(C)N1c1ccc(S(=O)(=O)N2CCOCC2)cc1Cl` (configuration not stated) as the compound, how does the Potency read?
**A.** inconclusive: 18.4 µM [activator, single point]

**Q.** With `COc1ccc(NC(=O)CCCC(=O)NCCc2ccc(OC)c(OC)c2)cc1` as the compound, how does the Potency read?
**A.** inconclusive: 2.31 µM [activator, partial curve, poor fit]

**Q.** Which Potency does the source give for `COc1ccc([C@H]2CC(=O)C=C(c3cc4ccccc4s3)C2)cc1OC` here?
**A.** inconclusive: 29.1 µM [activator, partial curve, poor fit]

**Q.** Which Potency does the source give for `CCCCC[C@@H]1C=C(C(=O)O)[C@H](c2ccc(Cl)c(Cl)c2)N1S(=O)(=O)c1ccc(C)cc1` here?
**A.** inactive

**Q.** For `Cc1cc(C)c2nncn2n1`, which Potency is on record?
**A.** inconclusive: 29.1 µM [activator, single point]

**Q.** Which Potency does the source give for `COC(=O)c1ccc(N2CCN(C)CC2)c(NC(=O)c2sc3ccccc3c2Cl)c1` here?
**A.** inconclusive: 10.3 µM [activator, partial curve, poor fit]

**Q.** Which Potency does the source give for `CCOC(=O)C1CCN(C(=O)CSCc2nc(-c3ccc(OCC)cc3)oc2C)CC1` here?
**A.** inconclusive: 16.4 µM [activator, single point]

**Q.** With `CC(=O)Nc1ccc(S(=O)(=O)Nc2cccn(Cc3ccc(C)cc3)c2=O)cc1` as the compound, how does the Potency read?
**A.** inconclusive: 16.4 µM [activator, single point]

**Q.** Which Potency does the source give for `NC(=O)CCCn1c(C(=O)c2cc(Cl)c(N)c(Cl)c2)c2ccc([N+](=O)[O-])cc2[n+]1[O-]` here?
**A.** active: 20.6 µM

**Q.** Which Potency does the source give for `CC(C)(C)C(=O)NC(=S)Nc1sc2c(c1C#N)CCCCC2` here?
**A.** inactive

**Q.** For `C=CCn1c(SCC(=O)NC(=O)Cc2ccccc2)nc2ccccc2c1=O`, which Potency is on record?
**A.** inconclusive: 18.4 µM [activator, single point]

**Q.** Which Potency does the source give for `CC(=O)Oc1ccc(-c2csc(Nc3ccc(Cl)cn3)n2)cc1` here?
**A.** inconclusive: 29.1 µM [activator, partial curve, poor fit]

**Q.** With `Fc1ccc(N/N=C2/CCSc3sccc32)c(F)c1` as the compound, how does the Potency read?
**A.** inactive

**Q.** With `CCOc1ccc(N(C(=O)c2snc(C(N)=O)c2N)C(C(=O)NC2CCCC2)c2ccncc2)cc1` (configuration not stated) as the compound, how does the Potency read?
**A.** inactive
